Results: PubChem BioAssay AID2718 (Broad Institute, 2010)
The whole screen tested about 320,000 compounds, of which about 480 (0.15%) were called active. Inconclusive means that the source gave no clear call. Such entries were picked first, then a sample of the others. Rule as the data show it: active = inhibition above about 26% (passing the limit was not always enough); inconclusive = no clear call, values can overlap the other calls.

Sequences of proteins named here, by UniProt entry; tags and fusion partners are left off. A change or cut given only in a name is not applied to a line headed by its entry.
UniProt O15379: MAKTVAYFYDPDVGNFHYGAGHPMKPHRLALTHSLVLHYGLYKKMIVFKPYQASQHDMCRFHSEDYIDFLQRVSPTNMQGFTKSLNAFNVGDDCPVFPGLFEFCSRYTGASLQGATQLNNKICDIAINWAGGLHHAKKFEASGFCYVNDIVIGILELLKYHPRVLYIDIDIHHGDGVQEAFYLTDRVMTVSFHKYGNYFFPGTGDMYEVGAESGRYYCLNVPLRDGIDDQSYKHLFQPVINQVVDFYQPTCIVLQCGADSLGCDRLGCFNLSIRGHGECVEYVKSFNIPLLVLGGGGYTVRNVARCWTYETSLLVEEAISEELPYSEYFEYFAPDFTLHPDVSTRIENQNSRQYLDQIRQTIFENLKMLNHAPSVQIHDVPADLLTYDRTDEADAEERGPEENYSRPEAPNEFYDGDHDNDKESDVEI

Each compound was assayed against Histone deacetylase 3 (Homo sapiens) (UniProt O15379) (assay: inhibition of human HDAC3 enzyme activity – biochemical, fluorescence, cell-free homogeneous, primary screen (AID 2718)). Conditions: recombinant HDAC3, fluorogenic peptide/trypsin coupled, at 8.3 µM, hits give high values.
In the case of Cn1cc(/C=C2\C(=O)NC(=O)N(c3ccccc3)C2=O)c2ccccc21, the inhibition was inactive: -0.472%. For CCC(=O)N1CC(=O)Nc2ccc(Cl)cc2C1c1ccc(F)cc1 (centres undefined), the inhibition was inconclusive: 14.3%. With CC1CCC[C@H](O)CCCCCc2cc(O)cc(O)c2C(=O)O1 (some centres undefined) the inhibition was inactive: 1.81%. For C=Cn1c(P(=S)(N2CCOCC2)N2CCOCC2)cc2c1CCCC2, the inhibition was inconclusive: 18.6%. Fc1ccc(Cn2nnnc2CN2CCC(n3nnc4cc(C(F)(F)F)ccc43)CC2)cc1 was tested, and the inhibition was inconclusive: 24.4%. C=C(C)c1cccc(C(C)(C)NC(=O)NC2CN3CCC2CC3)c1 (centres undefined) was tested, and the inhibition was inactive: -2.24%. With CN(C)c1ccc(/C=C2\C(=O)NC(=O)N(Cc3ccc(F)cc3)C2=O)cc1 the inhibition was inconclusive: 12.8%. COc1ccc(-c2nn(CCC#N)cc2C(=O)Nc2ccccc2)cc1OC was tested, and the inhibition was inconclusive: 19%. In the case of Cc1ccc(N2C(=O)NC(=O)/C(=C/c3ccc(OC(=O)c4cccs4)cc3)C2=O)cc1, the inhibition was active: 56.3%. With CCOC(=O)c1c(NS(=O)(=O)c2ccccc2)n(CCCOC)c2nc3ccccc3nc12 the inhibition was inactive: -21.2%. In the case of O=C(NC1(C(F)(F)F)Oc2ccc(Cl)cc2O1)N1CCC2(CC1)OCCO2 (centres undefined), the inhibition was inconclusive: 24%. For COc1ccccc1-n1c(O)c(C=NCc2ccc3c(c2)OCO3)c(=O)[nH]c1=O, the inhibition was inactive: 13%. For O=C(c1ccc(Cl)cc1)C1CCCN(Cc2ccc3c(c2)OCCO3)C1 (centres undefined), the inhibition was inconclusive: 34.4%. For CCC1(c2ccc(-c3ccccc3)cc2)C(=O)NC(=O)NC1=O, the inhibition was inactive: -4.37%. For CC1CC(C)CN(C(=O)COC(=O)c2cn(C)c3ccccc23)C1 (centres undefined), the inhibition was inactive: 13.2%. For Cc1cc(C(=O)CS(=O)(=O)c2ccccc2)cc(C)c1OC(=O)N(C)C, the inhibition was inconclusive: 19.7%. Cc1ncc([N+](=O)[O-])n1CCOc1nonc1N was tested, and the inhibition was inconclusive: 15.4%. For COC(=O)c1ccc(C(C(=O)NC2CCCCC2)N(CCN2CCOCC2)C(=O)Cc2cccs2)cc1 (centres undefined), the inhibition was inactive: -0.503%. In the case of COc1ccc2c(c1)CC1(CN2C)C(=O)NC(=O)N(c2ccc(F)cc2)C1=O (centres undefined), the inhibition was inconclusive: 11.3%. With Cn1c(O)c(C=NCc2ccco2)c(=O)n(C)c1=O the inhibition was inconclusive: 21.5%. In the case of CCN(CC)CCN=C(C)c1c(O)n(-c2ccccc2OC)c(=O)[nH]c1=O, the inhibition was inconclusive: 33.2%. With O=C1NC(=O)N(c2ccc3c(c2)OCO3)C(=O)/C1=C/c1ccc(N2CCCC2)o1 the inhibition was inconclusive: 17.6%. With O=C(Nc1ccc(Cl)cc1)Nc1nccs1 the inhibition was inconclusive: 14.8%. With COC(=O)[C@@]1(C#N)[C@@H]2C=CC(C(C)=O)=CN2[C@@H](C(N)=O)[C@@H]1c1ccc(F)cc1 the inhibition was inactive: 1.84%. With CCSP1(=S)N=C(N2CCOCC2)C(C#N)=C2CCCN21 (centres undefined) the inhibition was inconclusive: 20%. In the case of CN1C(=O)C(=Cc2ccccc2Oc2ccc(Cl)cc2)C(=O)N(C)C1=O, the inhibition was inactive: 2.75%. In the case of COc1cc(CC2(CCc3ccncc3)C(=O)N(C)C(=O)N(C)C2=O)cc(OC)c1OC, the inhibition was inconclusive: 14%. In the case of CCOC(=O)c1c(/N=C/c2c(O)n(-c3ccc(F)cc3)c(=S)[nH]c2=O)sc2c1CCCC2, the inhibition was inconclusive: 15.4%. With NCCc1c[nH]c2ccccc12 the inhibition was inactive: 0.338%. Cc1ccccc1-n1c(O)c(/C=C2/C(c3ccccc3)=Nc3ccccc32)c(=O)[nH]c1=O was tested, and the inhibition was inconclusive: 29%. With CC(C)CN(C(=O)CN1CC=C(c2ccccc2)CC1)c1c(N)n(CC(C)C)c(=O)[nH]c1=O the inhibition was inconclusive: 22.9%. CCCCC/C=C\C/C=C\C/C=C\C/C=C\CCCC(=O)Nc1ccc(O)cc1 was tested, and the inhibition was inconclusive: 29.8%. With COc1ccc(-n2c(/C=C3/C(=O)Nc4ccccc43)nc3ccccc3c2=O)cc1 the inhibition was inconclusive: 13.5%. For COC(=O)C1=C(c2ccccc2OCc2ccccc2)C[C@@H]2CC[C@H]1N2C(=O)NCCc1ccc(F)cc1, the inhibition was inconclusive: 20.9%. O=c1cccc2n1CC1CC2CN(Cc2c(Cl)cccc2Cl)C1 (centres undefined) was tested, and the inhibition was inconclusive: 18.1%. With CC1(C)CC(CCNCc2ccc3c(c2)OCO3)(Cc2ccccc2)CCO1 (centres undefined) the inhibition was inconclusive: 23.5%. With CN1C(=O)c2ccccc2NC(=O)[C@]12O[C@@H]2c1ccccc1 the inhibition was inactive: 0.157%. For COC(=O)CC(=O)c1ccc2c(c1)OCO2, the inhibition was inconclusive: 12.2%. For C=CCN=C(SCC(=O)c1ccc(Cl)cc1)c1c(O)n(C)c(=O)n(C)c1=O, the inhibition was inconclusive: 38.2%. In the case of O=C(COC(=O)Cc1ccccc1)NC12CC3CC(CC(C3)C1)C2, the inhibition was inconclusive: 19.4%. In the case of COC(=O)C1=C(c2cccc(OCc3ccccc3)c2)C[C@@H]2CC[C@H]1N2C(=O)NCCc1ccc(F)cc1, the inhibition was inconclusive: 20.6%. In the case of CCCCn1c(NC(=O)c2ccc(Br)o2)c(C(=O)OCC)c2nc3ccccc3nc21, the inhibition was inconclusive: 10.2%. COCCNC(=O)N1[C@H]2CC[C@@H]1C(C(=O)OC)=C(c1cccc(C#N)c1)C2 was tested, and the inhibition was inactive: -3.03%. In the case of NC(=O)Cn1cc(C(=O)c2ccccc2F)c2ccccc21, the inhibition was inconclusive: 33.2%. For O=C(c1cc2cc(Cl)ccc2[nH]1)N1CCC2(CC1)OCCO2, the inhibition was inconclusive: 14.8%. O=C(O)c1ccc(NC(=O)N2C[C@H]3C[C@@H](C2)c2cccc(=O)n2C3)cc1 was tested, and the inhibition was inactive: 1.95%. For O=Cc1cn(Cc2cccc([N+](=O)[O-])c2)c2ccccc12, the inhibition was inactive: -0.415%. For CSc1ccc(CN2CCN(C(=O)COc3ccc(C)cc3)CC2)cc1, the inhibition was inconclusive: 16.3%. With CC(=O)O[C@H]1CC[C@@]2(C)[C@H](C1)C(=O)C[C@H]1[C@@H]3CC[C@@H]4[C@@H](CN5C[C@@H](C)CC[C@H]5[C@@]4(C)O)[C@@H]3C[C@@H]12 the inhibition was inconclusive: 16%. For Oc1ccc(-[n+]2c(-c3ccccc3)cc(-c3ccccc3)cc2-c2ccccc2)cc1, the inhibition was inactive: 6.54%. COC(=O)C1=C(c2ccc(-c3ccccc3)c(F)c2)C[C@@H]2CC[C@H]1N2C(=O)NCc1ccc(F)cc1 was tested, and the inhibition was inconclusive: 16.6%. In the case of CC(C)Oc1cccc(NC(=O)c2cccn(Cc3ccc4c(c3)OC(F)(F)O4)c2=O)c1, the inhibition was active: 34.2%. O=[N+]([O-])c1ccccc1Cl was tested, and the inhibition was inactive: -3.59%. Cc1cc(S(=O)(=O)NCC(C)C)ccc1OCC(=O)N1CCN(Cc2ccccc2)CC1 was tested, and the inhibition was inconclusive: 27.3%. In the case of C1=CC(Cc2cncs2)c2ccccc21 (centres undefined), the inhibition was inactive: 4.35%. With Cn1c(O)c(C(c2ccccn2)c2c(O)n(C)c(=S)[nH]c2=O)c(=O)[nH]c1=S the inhibition was inconclusive: 21%. With CN(C)C(=O)Oc1ccc2nnc3ccnn3c2c1 the inhibition was inconclusive: 17.3%. CN1CCCC(C(=O)c2ccc(Cl)cc2)C1 (centres undefined) was tested, and the inhibition was inconclusive: 22.9%. In the case of Cc1ccc(S(=O)(=O)N2CCCC(C(=O)N3CCC4(CC3)OCCO4)C2)cc1 (centres undefined), the inhibition was inconclusive: 17.8%. In the case of COc1ccc(C(C)=O)cc1Cc1c(O)[nH]c(=S)[nH]c1=O, the inhibition was inconclusive: 19.9%. In the case of CC1(C)C(=O)C=C[C@]2(C)[C@H]3CC[C@@]4(C)[C@H](c5ccoc5)OC(=O)[C@H]5O[C@]54[C@]3(C)[C@H](O)C[C@@H]12, the inhibition was inactive: 4.09%. For Cc1ccc(N)c(C(=O)c2ccccc2)c1, the inhibition was inconclusive: 20.6%. With C[N+]1(C)[C@@H]2CC[C@H]1CC(OC(=O)[C@@H](CO)c1ccccc1)C2 (some centres undefined) the inhibition was inconclusive: 17.1%. In the case of Cc1cccc(OP(=O)(Oc2ccccc2)OC(c2ccccc2)C(F)(F)F)c1 (centres undefined), the inhibition was inconclusive: 25.5%. COC(=O)C1=C(c2ccc(F)cc2F)C[C@@H]2CC[C@H]1N2C(=O)NCCOc1ccc(OC)cc1 was tested, and the inhibition was inactive: 4.22%. NC(=O)Cn1cc(C(=O)c2ccccc2)c2ccccc21 was tested, and the inhibition was inconclusive: 17.3%. With COc1ccccc1N1CCN(Cc2cccc(OC)c2O)CC1 the inhibition was inconclusive: 24.1%. For Fc1ccc(CCNCc2cccc(Cl)c2)cc1, the inhibition was inconclusive: 21.3%. O=C1NC(=S)N(C2CC2)C(=O)/C1=C/c1ccc2c(c1)CCN2CCCCl was tested, and the inhibition was inactive: 6.13%. For CN1CCN(c2c(C#N)c(C(F)(F)F)nn2C)CC1, the inhibition was inactive: 1.64%. For CCNC(=S)N(C)CCc1cc2c(c(OC)c1C=C1C(=O)N(C)C(=O)N(C)C1=O)OCO2, the inhibition was inconclusive: 17.1%. In the case of O=c1[nH]c(=S)n(Cc2ccc(F)cc2)c(O)c1/C=N/N1CCCCCC1, the inhibition was inactive: 0.77%. COC(=O)C1=C(c2c(C)noc2C)C[C@@H]2CC[C@H]1N2C(=O)N1CCC(C)CC1 was tested, and the inhibition was inconclusive: 8.9%. With Clc1ccc(CSC(Cn2ccnc2)c2ccc(Cl)cc2Cl)cc1 (centres undefined) the inhibition was inconclusive: 21.6%. CN1C(=O)C(Cc2cccs2)C(=O)N(C)C1=O was tested, and the inhibition was inconclusive: 21.2%. CC(C)(C)c1ccc(O)c(N=Cc2c(O)ccc3ccccc23)c1 was tested, and the inhibition was inactive: -1.43%. In the case of CC(C)(C)c1cc(OC(=O)Cc2ccccc2)ccc1O, the inhibition was inconclusive: 24.5%. For FC(F)(F)c1ccc2c(c1)nnn2C1CCN(Cc2nnnn2Cc2ccccc2)CC1, the inhibition was inconclusive: 17.9%. In the case of c1ccc2c(CN3CCCCCCC3)c[nH]c2c1, the inhibition was inactive: -1.9%. In the case of CCCNS(=O)(=O)c1ccc(OCC(=O)N2CCN(C)CC2)cc1, the inhibition was inconclusive: 8.28%. For Cc1c(C)c2ccc(OCC(=O)N3CCN(Cc4ccccc4)CC3)cc2oc1=O, the inhibition was inconclusive: 12.8%. With CCCCCCCCCCCCCCCC[N+](C)(C)C the inhibition was inconclusive: 31.6%. In the case of CSc1nc(N)c(N=Nc2ccc([As](=O)(O)O)cc2)c(=O)[nH]1, the inhibition was inconclusive: 29%. For COc1ccc(-n2c(-c3ccccc3Br)nc3ccccc3c2=O)cc1, the inhibition was inactive: -9.34%.
